The values below come from US20210015858A1.

These are yes or no findings as the source states them, for the method shown. Some entries that bind do so weakly or less than the wild type.

The assay has as its target His-tagged cyno-TIGIT (cyno). As to the kind of experiment: ELISA. Background: An ELISA detects its analyte on a solid surface through an enzyme-linked reagent.

B1: 90D9 (antibody, V domains shown)
VH: EVQLQQSGPELVKPGASVKISCKTSGYTFTENTMHWVKQSHGKSLEWIGGINPNQGGNRNNQKFKGKATLTVDKSSSTAYMELRSLTSEDSAVYYCARSGLRDYAMDYWGQGTSVTVSS
VL: DIVMTQSHKFMSTSVGDRVSITCKASQHVSTAVVWYQQKPGQSPKLLIYSPSYRYTGVPDRFTGSGSGTDFTFTISSVQAEDLAVYYCQQHYSTPWTFGGGTKLEIK
B1: the binding result was “binds”.

B2: 350D10 (antibody, human IgG1, V domains shown)
VH: EVKLVESGGALVQPGGSLKLSCAASGFTFSDYYMYWVRQTPEKRLEWVASITKGGGSTYYPDTLKGRFTISRDNAKNTLYLQMSRLKSEDTDMYYCARQSSYDFVMDYWGQGTSVTVSS
VL: DIVMTQSHKFMSTSVGDRVTITCKASQDVDTAVAWYQQKPGQSPKLLIYWASARHTGVPDRFTGSGSGTDFTLTISNVQSEDLADYFCQQYSNYPLTFGVGTKLELK
Take B2: the binding result is reported as “binds”.
